According to publication PMC9299759, “FBXW24 controls female meiotic prophase progression by regulating SYCP3 ubiquitination” (Clinical and Translational Medicine, 2022):
No constants are given. Whether binding was seen depends on the method and setting. For some of these results: Binding seen in cells or lysates may run through a third protein. Some entries that bind do so weakly or less than the wild type. One block for each molecule: values may come before it.

Chains of the proteins cited; added tags and fusions are not shown.
UniProt Q3UIR3: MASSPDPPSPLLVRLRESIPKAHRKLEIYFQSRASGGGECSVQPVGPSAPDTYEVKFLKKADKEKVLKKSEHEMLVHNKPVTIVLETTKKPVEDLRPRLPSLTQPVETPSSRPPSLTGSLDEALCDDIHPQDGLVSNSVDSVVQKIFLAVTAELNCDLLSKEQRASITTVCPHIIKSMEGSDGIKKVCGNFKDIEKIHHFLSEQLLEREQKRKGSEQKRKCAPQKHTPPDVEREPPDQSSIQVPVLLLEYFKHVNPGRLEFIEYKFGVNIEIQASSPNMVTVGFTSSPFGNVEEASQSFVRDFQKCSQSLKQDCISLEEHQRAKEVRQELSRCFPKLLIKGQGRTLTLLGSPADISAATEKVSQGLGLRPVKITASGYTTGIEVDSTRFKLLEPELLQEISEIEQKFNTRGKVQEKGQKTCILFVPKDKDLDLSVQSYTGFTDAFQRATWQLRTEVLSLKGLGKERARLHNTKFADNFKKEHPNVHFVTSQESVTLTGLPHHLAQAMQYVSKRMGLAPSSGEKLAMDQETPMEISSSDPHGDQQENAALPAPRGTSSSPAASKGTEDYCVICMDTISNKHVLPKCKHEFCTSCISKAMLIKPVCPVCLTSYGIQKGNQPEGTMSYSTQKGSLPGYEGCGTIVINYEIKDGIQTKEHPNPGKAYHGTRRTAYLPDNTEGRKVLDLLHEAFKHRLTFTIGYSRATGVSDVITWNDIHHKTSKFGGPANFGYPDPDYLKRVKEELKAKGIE

Key:
[1] = biological target: T1, FBXW24 as in the co‐IP with STAT1 and DTX3L (Figure 8J, M) (mouse) (UniProt E9PXM9); assay: co-IP; co-IP and western blot (Figure 8J, M); sample and precipitating antibody not told
T1 sequence: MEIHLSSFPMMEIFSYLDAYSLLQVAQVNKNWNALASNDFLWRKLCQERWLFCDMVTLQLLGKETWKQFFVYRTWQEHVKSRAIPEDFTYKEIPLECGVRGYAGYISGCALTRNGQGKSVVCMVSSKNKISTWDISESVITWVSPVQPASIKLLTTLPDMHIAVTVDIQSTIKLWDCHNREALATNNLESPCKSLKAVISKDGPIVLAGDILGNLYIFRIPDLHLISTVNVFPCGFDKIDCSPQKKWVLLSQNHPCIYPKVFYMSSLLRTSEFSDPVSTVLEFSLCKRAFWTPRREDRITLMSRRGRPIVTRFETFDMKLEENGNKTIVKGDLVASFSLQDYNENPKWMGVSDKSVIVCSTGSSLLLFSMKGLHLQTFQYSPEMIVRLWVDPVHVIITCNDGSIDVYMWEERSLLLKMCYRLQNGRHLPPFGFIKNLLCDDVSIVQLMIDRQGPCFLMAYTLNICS

[2] = biological target: T2, SYCP3, yeast two-hybrid construct (mouse) (UniProt P70281); assay: two-hybrid; yeast two-hybrid (Y2H); vectors, bait and prey not told
T2 sequence: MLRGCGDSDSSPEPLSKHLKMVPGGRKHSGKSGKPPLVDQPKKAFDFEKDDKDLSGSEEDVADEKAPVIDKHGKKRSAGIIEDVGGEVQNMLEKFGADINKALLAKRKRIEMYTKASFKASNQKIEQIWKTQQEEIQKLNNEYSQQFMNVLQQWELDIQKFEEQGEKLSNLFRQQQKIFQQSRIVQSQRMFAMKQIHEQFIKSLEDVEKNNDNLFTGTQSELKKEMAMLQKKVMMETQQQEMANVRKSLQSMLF

Molecule: DTX3L (from UniProt Q3UIR3 1-748)
binding [1]: binds

B3: FBXW24 (F‐box and WD‐40 domain protein 24), yeast two-hybrid construct (protein, UniProt E9PXM9 1-466)
chain: T1 sequence
binding [2]: binds

The next lines start with the values.

binding [2]: binds
B1: FBXW24‐2 (100–191 AA), yeast two-hybrid construct (domain or fragment, UniProt E9PXM9 100-191)
chain: RGYAGYISGCALTRNGQGKSVVCMVSSKNKISTWDISESVITWVSPVQPASIKLLTTLPDMHIAVTVDIQSTIKLWDCHNREALATNNLESP

binding [2]: binds
B2: FBXW24‐4 (301–466 AA), yeast two-hybrid construct (domain or fragment, UniProt E9PXM9 301-466)
chain: LMSRRGRPIVTRFETFDMKLEENGNKTIVKGDLVASFSLQDYNENPKWMGVSDKSVIVCSTGSSLLLFSMKGLHLQTFQYSPEMIVRLWVDPVHVIITCNDGSIDVYMWEERSLLLKMCYRLQNGRHLPPFGFIKNLLCDDVSIVQLMIDRQGPCFLMAYTLNICS
